Results deposited as PubChem BioAssay AID493246 (Drosophila RNAi Screening Center, 2011).
In all, the deposit lists about 21,000 reagents; shown is an unselected part of those with a known target gene and a result. In the full data, 429 (2%) were called active. 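Values are raw and not normalised between plates; calls rest on per-plate z-scores that were not deposited.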 Entries without a mark were called inactive. Names joined by + are all predicted targets of the reagent. Not given: the amount of reagent, the time to read-out.

Test: 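Identify essential fly genes by loss of cell viability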 (primary screen)
Cell system: Drosophila Kc and S2R+ cells
Reagents: long dsRNA against Drosophila genes
Measurement: 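Raw, unnormalised count of remaining cells in each well; per-plate z-scores of cell number underlie the calls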
Reading the numbers: Kc cell number and S2R+ cell number: higher = more cells remaining
Call rule: 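Active when the per-plate z-score of cell number is 3 or more in the direction of fewer cells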

SA2 (GeneID 38167) [DRSC08385] scored Kc cell number, rep 1 = 1.64e6; Kc cell number, rep 2 = 1.70e6; S2R+ cell number, rep 1 = 1.05e6; S2R+ cell number, rep 2 = 1.50e6. Knock-down of CG13558 (GeneID 37719) [DRSC04196] came out at: Kc cell number, rep 1 = 1.52e6; Kc cell number, rep 2 = 1.54e6; S2R+ cell number, rep 1 = 1.27e6; S2R+ cell number, rep 2 = 1.38e6. Knock-down of CG31975 + ovm [DRSC00323] came out at: Kc cell number, rep 1 = 1.50e6; Kc cell number, rep 2 = 1.55e6; S2R+ cell number, rep 1 = 1.00e6; S2R+ cell number, rep 2 = 1.20e6. After knock-down of RpS19a (GeneID 32635) [DRSC20281], the screen gave Kc cell number, rep 1 = 9.14e5 (active); Kc cell number, rep 2 = 9.92e5; S2R+ cell number, rep 1 = 7.22e5; S2R+ cell number, rep 2 = 8.83e5. For CG15706 (GeneID 36799) [DRSC06577] the deposit lists Kc cell number, rep 1 = 1.58e6; Kc cell number, rep 2 = 1.61e6; S2R+ cell number, rep 1 = 1.25e6; S2R+ cell number, rep 2 = 1.39e6. Kcmf1 (GeneID 41082) [DRSC14459] showed Kc cell number, rep 1 = 1.47e6; Kc cell number, rep 2 = 1.54e6; S2R+ cell number, rep 1 = 1.19e6; S2R+ cell number, rep 2 = 1.25e6.

With knock-down of Dic1 (GeneID 41640) [DRSC14125], the record shows Kc cell number, rep 1 = 1.56e6; Kc cell number, rep 2 = 1.70e6; S2R+ cell number, rep 1 = 1.26e6; S2R+ cell number, rep 2 = 1.36e6. Against shtd (GeneID 32473) [DRSC20166] the deposit lists Kc cell number, rep 1 = 5.59e5; S2R+ cell number, rep 1 = 8.26e5. For Wdfy2 (GeneID 34425) [DRSC02822], the values are Kc cell number, rep 1 = 1.39e6; Kc cell number, rep 2 = 1.42e6; S2R+ cell number, rep 1 = 1.19e6; S2R+ cell number, rep 2 = 1.28e6. After knock-down of mei-9 (GeneID 31373) [DRSC18792] the results were Kc cell number, rep 1 = 1.50e6; Kc cell number, rep 2 = 1.48e6; S2R+ cell number, rep 1 = 1.04e6; S2R+ cell number, rep 2 = 1.14e6. Silencing of CR18275 + CG13373 [DRSC17900] resulted in: Kc cell number, rep 1 = 1.63e6; Kc cell number, rep 2 = 1.57e6; S2R+ cell number, rep 1 = 1.06e6; S2R+ cell number, rep 2 = 1.06e6. With knock-down of CG7963 (GeneID 41001) [DRSC16355], the record shows Kc cell number, rep 1 = 1.50e6; Kc cell number, rep 2 = 1.66e6; S2R+ cell number, rep 1 = 1.23e6; S2R+ cell number, rep 2 = 1.33e6.

CG10177 (GeneID 42772) [DRSC14201] gave Kc cell number, rep 1 = 1.45e6; Kc cell number, rep 2 = 1.59e6; S2R+ cell number, rep 1 = 1.06e6; S2R+ cell number, rep 2 = 1.04e6. Knock-down of CG14423 (GeneID 31287) [DRSC17920] gave: Kc cell number, rep 1 = 1.51e6; Kc cell number, rep 2 = 1.53e6; S2R+ cell number, rep 1 = 1.05e6; S2R+ cell number, rep 2 = 1.19e6. CG10395 (GeneID 35490) [DRSC04840] scored Kc cell number, rep 1 = 1.46e6; Kc cell number, rep 2 = 1.57e6; S2R+ cell number, rep 1 = 1.14e6; S2R+ cell number, rep 2 = 1.07e6. Depletion of Rho1 (GeneID 36775) [DRSC07530] gave: Kc cell number, rep 1 = 1.19e6; Kc cell number, rep 2 = 1.23e6; S2R+ cell number, rep 1 = 1.16e6; S2R+ cell number, rep 2 = 1.25e6. Knock-down of Or59c (GeneID 37716) [DRSC04633] came out at: Kc cell number, rep 1 = 1.57e6; Kc cell number, rep 2 = 1.68e6; S2R+ cell number, rep 1 = 1.39e6; S2R+ cell number, rep 2 = 1.40e6. galla-2 (GeneID 39221) [DRSC10936] showed Kc cell number, rep 1 = 1.56e6; Kc cell number, rep 2 = 1.56e6; S2R+ cell number, rep 1 = 1.05e6; S2R+ cell number, rep 2 = 1.16e6.

After knock-down of mahj (GeneID 37462) [DRSC04053], the record shows Kc cell number, rep 1 = 1.26e6; Kc cell number, rep 2 = 1.37e6; S2R+ cell number, rep 1 = 9.13e5; S2R+ cell number, rep 2 = 9.50e5. CG12885 (GeneID 43308) [DRSC14572] scored Kc cell number, rep 1 = 1.53e6; Kc cell number, rep 2 = 1.64e6; S2R+ cell number, rep 1 = 9.90e5; S2R+ cell number, rep 2 = 1.06e6. Silencing of wkd (GeneID 41390) [DRSC15777] came out at: Kc cell number, rep 1 = 1.50e6; Kc cell number, rep 2 = 1.47e6; S2R+ cell number, rep 1 = 1.20e6; S2R+ cell number, rep 2 = 1.27e6. Knock-down of CG1789 (GeneID 31812) [DRSC18140] came out at: Kc cell number, rep 1 = 5.39e5; S2R+ cell number, rep 1 = 8.00e5. Knock-down of Eip63E (GeneID 38433) [DRSC08658] resulted in: Kc cell number, rep 1 = 1.27e6; Kc cell number, rep 2 = 1.37e6; S2R+ cell number, rep 1 = 1.17e6; S2R+ cell number, rep 2 = 1.18e6. Depletion of CG15544 (GeneID 43655) [DRSC15082] came out at: Kc cell number, rep 1 = 1.44e6; Kc cell number, rep 2 = 1.53e6; S2R+ cell number, rep 1 = 1.04e6; S2R+ cell number, rep 2 = 1.17e6.

For CG14324 (GeneID 42119) [DRSC14803], the values are Kc cell number, rep 1 = 1.43e6; Kc cell number, rep 2 = 1.45e6; S2R+ cell number, rep 1 = 1.00e6; S2R+ cell number, rep 2 = 9.98e5. Megf8 (GeneID 34099) [DRSC03058] gave Kc cell number, rep 1 = 1.35e6; Kc cell number, rep 2 = 1.33e6; S2R+ cell number, rep 1 = 7.29e5; S2R+ cell number, rep 2 = 9.79e5. For CG9822 (GeneID 37440) [DRSC04568] the deposit lists Kc cell number, rep 1 = 1.72e6; Kc cell number, rep 2 = 1.79e6; S2R+ cell number, rep 1 = 1.21e6; S2R+ cell number, rep 2 = 2.34e5.

Already shown: an excerpt of the list.
Dic1 (GeneID 41640) [DRSC14125] → Kc cell number, rep 1 = 1.56e6; Kc cell number, rep 2 = 1.70e6; S2R+ cell number, rep 1 = 1.26e6; S2R+ cell number, rep 2 = 1.36e6
shtd (GeneID 32473) [DRSC20166] → Kc cell number, rep 1 = 5.59e5; S2R+ cell number, rep 1 = 8.26e5
Wdfy2 (GeneID 34425) [DRSC02822] → Kc cell number, rep 1 = 1.39e6; Kc cell number, rep 2 = 1.42e6; S2R+ cell number, rep 1 = 1.19e6; S2R+ cell number, rep 2 = 1.28e6
mei-9 (GeneID 31373) [DRSC18792] → Kc cell number, rep 1 = 1.50e6; Kc cell number, rep 2 = 1.48e6; S2R+ cell number, rep 1 = 1.04e6; S2R+ cell number, rep 2 = 1.14e6
